# Test results as given in publication doi:10.1101/2024.04.28.591512.
# Protein sequences, listed by entry. Tags and fused reporters are not part of them. Lines headed by an entry give the natural chain unless they say otherwise; changes in a name come on top. Residues count along the entry.
# UniProt Q15788, 570-780: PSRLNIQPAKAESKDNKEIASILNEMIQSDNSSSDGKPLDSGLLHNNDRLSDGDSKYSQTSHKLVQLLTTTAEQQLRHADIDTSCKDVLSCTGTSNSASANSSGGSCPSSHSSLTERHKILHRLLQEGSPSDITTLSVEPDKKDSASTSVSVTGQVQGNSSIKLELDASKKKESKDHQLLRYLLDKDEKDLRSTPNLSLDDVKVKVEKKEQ
# Residue numbers refer to the chain shown, from its start. Names may count otherwise. No constants are given. Whether binding was seen depends on the method and setting. Some entries that bind do so weakly or less than the wild type.
# B1: LXRα-VP16, wildtype (receptor, UniProt Q13133-1 1-447)
# chain: MSLWLGAPVPDIPPDSAVELWKPGAQDASSQAQGGSSCILREEARMPHSAGGTAGVGLEAAEPTALLTRAEPPSEPTEIRPQKRKKGPAPKMLGNELCSVCGDKASGFHYNVLSCEGCKGFFRRSVIKGAHYICHSGGHCPMDTYMRRKCQECRLRKCRQAGMREECVLSEEQIRLKKLKRQEEEQAHATSLPPRASSPPQILPQLSPEQLGMIEKLVAAQQQCNRRSFSDRLRVTPWPMAPDPHSREARQQRFAHFTELAIVSVQEIVDFAKQLPGFLQLSREDQIALLKTSAIEVMLLETSRRYNPGSESITFLKDFSYNREDFAKAGLQVEFINPIFEFSRAMNELQLNDAEFALLIAISIFSADRPNVQDQLQVERLQHTYVEALHAYVSIHHPHDRLMFPRMLMKLVSLRTLSSVHSEQVFALRLQDKKLPPLLSEIWDVHE
# B2: LXRα-VP16 M346V (receptor, UniProt Q13133-1 1-447)
# chain: B1 chain with M346V
# Biological target: Gal4-SRC1 (aa 570-780) (UniProt Q15788)
# Test: two-hybrid
row,Binder,binding
1,B1,binds
2,B2,binds
